The target of this assay is chemokine (C-C motif) receptor 2 (CCR2) on blood cells (human) (UniProt P41597). Put plainly: flow cytometry; MCP-1 binding compared with anti-CCR2 staining of monocytes. (In general: In flow cytometry, cells or beads pass a laser one at a time.)

Protein sequences, listed by entry. Tags and fused reporters are not part of them. Residues count along the entry.
UniProt P41597: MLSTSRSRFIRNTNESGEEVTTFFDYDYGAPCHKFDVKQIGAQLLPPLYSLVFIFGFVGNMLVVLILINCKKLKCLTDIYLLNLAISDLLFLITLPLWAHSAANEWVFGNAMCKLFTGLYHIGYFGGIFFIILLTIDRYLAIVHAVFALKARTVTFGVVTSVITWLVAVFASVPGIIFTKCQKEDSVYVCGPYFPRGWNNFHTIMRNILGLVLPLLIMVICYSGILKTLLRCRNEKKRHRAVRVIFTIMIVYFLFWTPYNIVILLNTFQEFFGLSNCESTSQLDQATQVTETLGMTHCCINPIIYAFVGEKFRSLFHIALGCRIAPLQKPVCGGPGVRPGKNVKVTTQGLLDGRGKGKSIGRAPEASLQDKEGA
UniProt P13500, residues 24-99: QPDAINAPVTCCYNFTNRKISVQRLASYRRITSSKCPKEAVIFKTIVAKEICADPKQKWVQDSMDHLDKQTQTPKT

These are yes or no findings as the source states them, for the method shown. Some entries that bind do so weakly or less than the wild type.

As to “biotinylated and Alexa647 Fluor labeled MCP-1 (Almac Sciences) (from UniProt P13500 24-99) (ligand)”, the binding entry is given as “binds”.

Values taken from patent publication US20140175018A1.
